According to publication PMC7862700:
Only a part is listed here, and it is no random draw. At the low end of the ranking, values are background and their order means little.

By UniProt entry, the sequences of proteins in these tests, tags left out. Where a name states a change or a piece, a line headed by the entry shows the natural chain unless it says otherwise.
UniProt O43186: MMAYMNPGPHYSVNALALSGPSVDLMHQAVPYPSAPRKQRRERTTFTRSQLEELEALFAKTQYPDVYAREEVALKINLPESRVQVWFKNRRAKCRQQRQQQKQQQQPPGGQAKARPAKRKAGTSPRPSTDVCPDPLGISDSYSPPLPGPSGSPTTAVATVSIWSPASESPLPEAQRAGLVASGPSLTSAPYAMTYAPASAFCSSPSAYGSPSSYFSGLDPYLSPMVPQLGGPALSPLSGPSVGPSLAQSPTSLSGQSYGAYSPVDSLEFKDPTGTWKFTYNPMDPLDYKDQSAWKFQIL

What follows are sequences tested against CRX (UniProt O43186) (assay: DAPPL (digital affinity profiling via proximity ligation, sequencing)). Conditions: 10 mM Tris-HCl pH 7.5, 50 mM NaCl, 1 mM DTT, 4% glycerol, room temperature, 30 min; GST-TFs on glutathione beads, 16-mer random dsDNA library, 0.1% …; high values mean tight binding; double strand, one strand shown; scale: fold enrichment (6-mer frequency, TF over GST control).

Row | Sequence | binding signal
1 | CAAAAA | 1.02
2 | TTTCGA | 1.86
3 | GATTAC | 3.27
4 | AACGAC | 0.949
5 | GTGCTC | 0.935
6 | AAAAGA | 1.28
7 | TATTCT | 1.9
8 | CCCCCG | 0.921
9 | TGTTTG | 1.08
10 | ATCTTT | 1.76
11 | ACATCA | 0.909
12 | GATACG | 0.912
13 | TATAAC | 1.43
14 | CCCCAT | 1.15
15 | GTATTA | 2.49
16 | CCCTTT | 1.35
17 | ACTCGC | 0.955
18 | GCATTC | 0.913
19 | CTTGAC | 0.978
20 | TAGTAC | 1.29

Shown as a markdown table: part of the list above.

| Row | Sequence | binding signal |
| --- | --- | --- |
| 6 | AAAAGA | 1.28 |
| 7 | TATTCT | 1.9 |
| 18 | GCATTC | 0.913 |

More records

Row | Sequence | binding signal
21 | TCGCAA | 1.05
22 | ATGTTC | 1.22
23 | CTGGCC | 0.902
24 | CCAATG | 0.847
25 | ATACAG | 1.02
26 | TGACGA | 0.941
27 | TCCTCA | 1.4
28 | GATTCC | 1.15
29 | TGCAAC | 0.92
30 | CGTACT | 1.07
31 | ACTTTC | 1.63
32 | GTCTTT | 1.24
33 | ATGGTA | 1.33
34 | CCTTGG | 1.09
35 | TGCGCG | 0.964
36 | CGACGT | 0.795
37 | TGCCCG | 0.94
38 | CCGTCC | 0.901
39 | ATGGTT | 1.17
